Reference: the supplement of paper PMC7666118
Some of the results follow.

Amino acid sequences for entries named in this document (tags omitted). A change or cut given only in a name is not applied to a line headed by its entry.
UniProt O96006: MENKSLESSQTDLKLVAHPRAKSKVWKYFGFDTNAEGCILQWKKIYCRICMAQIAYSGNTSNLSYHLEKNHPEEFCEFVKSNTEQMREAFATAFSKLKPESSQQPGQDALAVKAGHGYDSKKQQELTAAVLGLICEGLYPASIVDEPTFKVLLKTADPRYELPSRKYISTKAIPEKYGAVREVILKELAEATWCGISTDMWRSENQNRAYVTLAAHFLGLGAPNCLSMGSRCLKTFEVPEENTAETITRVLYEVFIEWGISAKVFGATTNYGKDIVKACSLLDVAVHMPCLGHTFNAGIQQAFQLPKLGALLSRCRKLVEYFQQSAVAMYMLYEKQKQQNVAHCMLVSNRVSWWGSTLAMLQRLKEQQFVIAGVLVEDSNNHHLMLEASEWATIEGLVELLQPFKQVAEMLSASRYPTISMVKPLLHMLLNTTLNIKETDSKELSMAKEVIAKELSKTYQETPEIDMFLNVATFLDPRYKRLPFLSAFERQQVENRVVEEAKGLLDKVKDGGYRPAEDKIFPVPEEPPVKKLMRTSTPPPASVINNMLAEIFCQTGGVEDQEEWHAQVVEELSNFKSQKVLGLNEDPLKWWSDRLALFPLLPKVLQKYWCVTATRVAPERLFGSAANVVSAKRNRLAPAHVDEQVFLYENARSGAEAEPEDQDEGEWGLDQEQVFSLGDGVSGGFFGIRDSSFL
UniProt Q9Y2Z4: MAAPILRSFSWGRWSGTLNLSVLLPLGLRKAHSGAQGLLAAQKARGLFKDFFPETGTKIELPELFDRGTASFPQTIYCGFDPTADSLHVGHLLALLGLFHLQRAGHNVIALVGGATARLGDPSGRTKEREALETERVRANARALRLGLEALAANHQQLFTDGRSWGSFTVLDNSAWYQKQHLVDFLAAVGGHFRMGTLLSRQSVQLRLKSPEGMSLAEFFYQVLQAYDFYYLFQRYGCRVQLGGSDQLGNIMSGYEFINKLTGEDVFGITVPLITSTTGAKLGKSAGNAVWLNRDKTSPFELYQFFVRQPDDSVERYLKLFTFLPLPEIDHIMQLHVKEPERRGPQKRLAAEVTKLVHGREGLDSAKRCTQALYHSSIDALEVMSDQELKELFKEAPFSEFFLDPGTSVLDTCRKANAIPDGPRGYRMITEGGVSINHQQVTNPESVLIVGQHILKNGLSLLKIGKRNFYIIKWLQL
UniProt Q96AX1: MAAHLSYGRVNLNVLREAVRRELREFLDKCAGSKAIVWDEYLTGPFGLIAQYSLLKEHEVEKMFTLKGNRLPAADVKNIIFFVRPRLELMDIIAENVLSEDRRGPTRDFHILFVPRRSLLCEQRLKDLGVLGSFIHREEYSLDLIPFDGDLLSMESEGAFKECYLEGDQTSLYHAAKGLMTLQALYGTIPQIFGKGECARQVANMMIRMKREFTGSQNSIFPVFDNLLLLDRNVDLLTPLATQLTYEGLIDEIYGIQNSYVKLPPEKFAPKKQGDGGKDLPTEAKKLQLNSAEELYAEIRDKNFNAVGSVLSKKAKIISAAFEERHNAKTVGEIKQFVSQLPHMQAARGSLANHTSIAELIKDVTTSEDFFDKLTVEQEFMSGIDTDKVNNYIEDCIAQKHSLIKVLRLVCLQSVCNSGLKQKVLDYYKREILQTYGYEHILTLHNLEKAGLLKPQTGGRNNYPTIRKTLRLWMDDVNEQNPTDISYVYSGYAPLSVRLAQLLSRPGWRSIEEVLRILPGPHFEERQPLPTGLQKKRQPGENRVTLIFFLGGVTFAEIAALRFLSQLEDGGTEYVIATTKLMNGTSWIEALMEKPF
UniProt O60315: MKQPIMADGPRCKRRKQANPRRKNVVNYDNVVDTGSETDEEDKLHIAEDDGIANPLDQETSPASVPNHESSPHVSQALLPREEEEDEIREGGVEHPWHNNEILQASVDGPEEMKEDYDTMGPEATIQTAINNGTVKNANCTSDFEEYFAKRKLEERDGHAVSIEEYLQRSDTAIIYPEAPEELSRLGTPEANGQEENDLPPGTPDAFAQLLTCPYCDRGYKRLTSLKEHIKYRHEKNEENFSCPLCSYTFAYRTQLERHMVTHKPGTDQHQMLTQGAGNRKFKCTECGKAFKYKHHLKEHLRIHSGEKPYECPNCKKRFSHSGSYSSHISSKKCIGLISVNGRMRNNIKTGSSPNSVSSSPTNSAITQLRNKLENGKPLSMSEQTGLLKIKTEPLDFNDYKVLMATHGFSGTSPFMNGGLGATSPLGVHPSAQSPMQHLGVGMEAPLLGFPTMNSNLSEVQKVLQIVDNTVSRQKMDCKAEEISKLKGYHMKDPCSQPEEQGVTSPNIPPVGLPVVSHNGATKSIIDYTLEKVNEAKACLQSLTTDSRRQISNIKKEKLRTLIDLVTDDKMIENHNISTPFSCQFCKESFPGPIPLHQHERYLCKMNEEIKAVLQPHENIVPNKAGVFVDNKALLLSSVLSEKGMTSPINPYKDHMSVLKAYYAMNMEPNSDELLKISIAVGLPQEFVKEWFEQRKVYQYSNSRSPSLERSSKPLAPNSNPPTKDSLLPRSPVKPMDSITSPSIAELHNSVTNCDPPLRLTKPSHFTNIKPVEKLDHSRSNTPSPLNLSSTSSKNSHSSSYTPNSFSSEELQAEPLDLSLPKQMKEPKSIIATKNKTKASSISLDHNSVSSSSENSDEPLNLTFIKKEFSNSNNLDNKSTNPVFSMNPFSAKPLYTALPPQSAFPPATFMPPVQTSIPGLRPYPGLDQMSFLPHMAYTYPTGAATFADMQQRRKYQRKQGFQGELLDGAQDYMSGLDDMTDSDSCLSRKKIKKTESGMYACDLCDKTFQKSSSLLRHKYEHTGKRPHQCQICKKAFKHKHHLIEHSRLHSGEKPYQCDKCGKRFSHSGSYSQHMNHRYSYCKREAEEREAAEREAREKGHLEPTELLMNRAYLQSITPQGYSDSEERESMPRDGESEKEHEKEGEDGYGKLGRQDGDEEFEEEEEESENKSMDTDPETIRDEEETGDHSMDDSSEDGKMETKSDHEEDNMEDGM
UniProt Q9BTV6: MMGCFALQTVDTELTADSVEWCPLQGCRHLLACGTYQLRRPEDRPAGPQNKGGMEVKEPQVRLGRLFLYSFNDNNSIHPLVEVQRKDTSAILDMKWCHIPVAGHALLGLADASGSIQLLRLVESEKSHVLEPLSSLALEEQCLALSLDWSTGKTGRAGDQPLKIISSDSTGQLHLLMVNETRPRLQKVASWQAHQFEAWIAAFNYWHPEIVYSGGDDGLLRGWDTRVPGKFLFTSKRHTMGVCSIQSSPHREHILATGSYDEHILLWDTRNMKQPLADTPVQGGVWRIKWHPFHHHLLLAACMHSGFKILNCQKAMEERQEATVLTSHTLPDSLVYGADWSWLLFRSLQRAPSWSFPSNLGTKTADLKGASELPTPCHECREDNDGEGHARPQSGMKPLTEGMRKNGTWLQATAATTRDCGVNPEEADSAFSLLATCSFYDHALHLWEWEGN
UniProt Q9H7D7: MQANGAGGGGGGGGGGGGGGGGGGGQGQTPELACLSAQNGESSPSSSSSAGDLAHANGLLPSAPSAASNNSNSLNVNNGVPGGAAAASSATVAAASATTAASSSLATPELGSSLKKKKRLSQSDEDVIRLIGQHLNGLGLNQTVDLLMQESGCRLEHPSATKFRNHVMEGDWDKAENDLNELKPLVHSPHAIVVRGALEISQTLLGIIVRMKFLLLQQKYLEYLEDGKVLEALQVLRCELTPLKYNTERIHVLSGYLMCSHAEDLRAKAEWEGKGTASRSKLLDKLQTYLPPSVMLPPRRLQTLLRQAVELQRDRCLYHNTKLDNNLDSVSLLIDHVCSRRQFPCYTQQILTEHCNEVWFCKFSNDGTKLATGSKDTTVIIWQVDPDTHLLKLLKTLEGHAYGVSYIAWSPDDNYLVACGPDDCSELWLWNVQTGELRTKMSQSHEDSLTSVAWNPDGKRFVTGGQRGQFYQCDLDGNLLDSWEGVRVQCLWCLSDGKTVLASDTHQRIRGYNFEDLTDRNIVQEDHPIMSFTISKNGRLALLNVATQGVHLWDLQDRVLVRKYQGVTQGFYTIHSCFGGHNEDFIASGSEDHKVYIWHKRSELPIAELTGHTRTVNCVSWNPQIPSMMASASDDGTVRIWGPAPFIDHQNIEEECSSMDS
UniProt P42768: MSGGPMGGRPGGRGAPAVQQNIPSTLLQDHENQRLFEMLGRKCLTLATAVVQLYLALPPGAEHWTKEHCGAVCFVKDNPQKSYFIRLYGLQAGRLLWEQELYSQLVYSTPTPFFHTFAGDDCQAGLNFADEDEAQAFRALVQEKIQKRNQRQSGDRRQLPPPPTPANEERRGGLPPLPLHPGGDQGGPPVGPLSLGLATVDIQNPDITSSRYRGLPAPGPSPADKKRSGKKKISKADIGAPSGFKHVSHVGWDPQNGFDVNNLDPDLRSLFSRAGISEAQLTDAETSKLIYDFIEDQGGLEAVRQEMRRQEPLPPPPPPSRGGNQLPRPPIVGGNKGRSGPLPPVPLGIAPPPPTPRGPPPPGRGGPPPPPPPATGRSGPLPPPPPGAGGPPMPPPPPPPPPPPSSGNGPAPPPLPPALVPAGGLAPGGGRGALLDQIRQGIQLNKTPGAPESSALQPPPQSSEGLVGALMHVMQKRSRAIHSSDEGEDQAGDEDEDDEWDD
UniProt Q6AWC2, whole entry: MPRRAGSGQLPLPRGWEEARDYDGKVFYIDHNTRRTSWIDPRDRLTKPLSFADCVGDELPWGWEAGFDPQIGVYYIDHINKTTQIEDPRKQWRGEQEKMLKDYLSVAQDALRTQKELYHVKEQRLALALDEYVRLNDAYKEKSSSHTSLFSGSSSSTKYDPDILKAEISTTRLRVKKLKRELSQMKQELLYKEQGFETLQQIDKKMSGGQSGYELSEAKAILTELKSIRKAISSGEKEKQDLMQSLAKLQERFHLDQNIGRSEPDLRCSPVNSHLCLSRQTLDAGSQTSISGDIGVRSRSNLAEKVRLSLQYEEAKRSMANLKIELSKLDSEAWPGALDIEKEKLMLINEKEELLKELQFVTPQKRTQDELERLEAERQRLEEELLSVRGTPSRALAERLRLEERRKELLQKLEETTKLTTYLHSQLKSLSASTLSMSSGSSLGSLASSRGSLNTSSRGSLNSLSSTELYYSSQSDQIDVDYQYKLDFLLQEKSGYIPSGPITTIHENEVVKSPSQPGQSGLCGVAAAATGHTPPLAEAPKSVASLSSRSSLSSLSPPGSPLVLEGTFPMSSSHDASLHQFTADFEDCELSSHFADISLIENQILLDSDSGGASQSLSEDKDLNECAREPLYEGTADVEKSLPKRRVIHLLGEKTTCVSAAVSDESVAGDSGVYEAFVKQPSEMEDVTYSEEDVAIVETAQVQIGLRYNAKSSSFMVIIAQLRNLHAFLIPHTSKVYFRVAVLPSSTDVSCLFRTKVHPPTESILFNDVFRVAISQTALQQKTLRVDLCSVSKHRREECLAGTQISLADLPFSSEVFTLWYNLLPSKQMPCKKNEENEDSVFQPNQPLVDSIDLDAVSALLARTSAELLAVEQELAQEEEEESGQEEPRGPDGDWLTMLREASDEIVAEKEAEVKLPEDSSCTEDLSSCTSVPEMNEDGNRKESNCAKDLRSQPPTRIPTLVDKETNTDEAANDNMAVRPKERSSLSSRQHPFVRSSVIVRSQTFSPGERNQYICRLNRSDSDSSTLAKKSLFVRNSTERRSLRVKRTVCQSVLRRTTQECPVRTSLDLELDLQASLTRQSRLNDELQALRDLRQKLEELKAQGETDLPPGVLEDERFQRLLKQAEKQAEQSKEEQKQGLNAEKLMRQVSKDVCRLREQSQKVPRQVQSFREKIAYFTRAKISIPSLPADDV
UniProt Q9H977: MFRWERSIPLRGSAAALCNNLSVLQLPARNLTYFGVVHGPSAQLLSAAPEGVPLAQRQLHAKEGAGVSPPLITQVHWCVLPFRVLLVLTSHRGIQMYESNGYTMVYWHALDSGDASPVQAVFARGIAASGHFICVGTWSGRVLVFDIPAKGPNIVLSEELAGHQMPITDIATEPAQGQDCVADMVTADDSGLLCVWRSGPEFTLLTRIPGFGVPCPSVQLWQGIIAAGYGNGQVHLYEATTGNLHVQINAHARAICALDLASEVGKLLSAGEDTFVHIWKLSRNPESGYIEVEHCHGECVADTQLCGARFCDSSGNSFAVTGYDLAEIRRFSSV
UniProt Q9BRP8: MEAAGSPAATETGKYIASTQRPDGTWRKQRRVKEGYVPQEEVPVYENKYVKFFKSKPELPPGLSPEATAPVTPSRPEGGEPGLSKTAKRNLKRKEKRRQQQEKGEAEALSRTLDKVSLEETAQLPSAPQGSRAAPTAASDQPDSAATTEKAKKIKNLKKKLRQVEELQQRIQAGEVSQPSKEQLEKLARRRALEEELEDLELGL
UniProt Q8IWT0: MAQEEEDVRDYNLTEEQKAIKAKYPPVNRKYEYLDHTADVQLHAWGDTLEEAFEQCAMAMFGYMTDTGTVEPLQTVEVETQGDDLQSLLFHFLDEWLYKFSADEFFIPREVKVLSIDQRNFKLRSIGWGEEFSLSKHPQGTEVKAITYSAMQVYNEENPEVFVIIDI

Compound: COc1ccc(Cn2ccc3ccc(C(=O)NO)cc32)cc1
Experiment: dose-dependent thermal stabilisation call (2D-TPP, DLPTP, 10% FDR) (binary (1 = stabilised)); higher = stabilised by the compound
Conditions: system: HL-60 intact cells; concentration range 0.04-10 µM

| Target | dose-dependent thermal stabilisation call |
| --- | --- |
| ZBED1 (UniProt O96006) | inactive: 0 |
| YARS2 (UniProt Q9Y2Z4) | inactive: 0 |
| VPS33A (UniProt Q96AX1) | inactive: 0 |
| ZAK (UniProt Q9NYL2) | inactive: 0 |
| ZEB2 (UniProt O60315) | inactive: 0 |
| WDR85 (UniProt Q9BTV6) | inactive: 0 |
| WDR26 (UniProt Q9H7D7) | inactive: 0 |
| WDR61 (UniProt Q9GZS3) | inactive: 0 |
| WAS (UniProt P42768) | inactive: 0 |
| VCPIP1 (UniProt Q96JH7) | inactive: 0 |
| WDR5 (UniProt P61964) | inactive: 0 |
| WDFY3 (UniProt Q8IZQ1) | inactive: 0 |
| ZBED4 (UniProt O75132) | inactive: 0 |
| WWC2 (UniProt Q6AWC2) | inactive: 0 |
| WDR54 (UniProt Q9H977) | inactive: 0 |
| WIBG (UniProt Q9BRP8) | inactive: 0 |
| WDR34 (UniProt Q96EX3) | inactive: 0 |
| WAPAL (UniProt Q7Z5K2) | inactive: 0 |
| XRCC2 (UniProt O43543) | inactive: 0 |
| ZC3H7B (UniProt Q9UGR2) | inactive: 0 |
| ZMYM1 (UniProt Q5SVZ6) | inactive: 0 |
| ZBTB8OS (UniProt Q8IWT0) | inactive: 0 |
| YTHDF1 (UniProt Q9BYJ9) | inactive: 0 |
| WDR70 (UniProt Q9NW82) | inactive: 0 |
| UTP3 (UniProt Q9NQZ2) | inactive: 0 |
| VPS16 (UniProt Q9H269) | inactive: 0 |
| WAC (UniProt Q9BTA9) | inactive: 0 |

Reformatted in CSV form: entries from further up
Target,dose-dependent thermal stabilisation call
ZBED4 (UniProt O75132),inactive: 0
WWC2 (UniProt Q6AWC2),inactive: 0
WDR54 (UniProt Q9H977),inactive: 0
WIBG (UniProt Q9BRP8),inactive: 0
WDR34 (UniProt Q96EX3),inactive: 0
WAPAL (UniProt Q7Z5K2),inactive: 0
XRCC2 (UniProt O43543),inactive: 0
ZC3H7B (UniProt Q9UGR2),inactive: 0
